A short description of this assay: IkB Signaling. The conditions noted are these: ABC-DLBCL IkBa-CBG/CBR dual luciferase ratio (green luciferase fused to IkBa over red control in OCI-Ly3 lymphoma cells), 4 h. Summed up:
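In this assay, an IκBα–CBG68 fusion accumulates when IKK-driven degradation is blocked; native CBR normalizes for cell number. OCI-Ly3 cells were treated 4 h with compound and doxycycline, then green and red light read after Chroma-Glo addition.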

Where [1] appears, read: measured here: control luc red channel unless noted.
Setting [2] is: measured here: IkB-luc green channel.
[3] abbreviates: measured here: control luc red channel.

Each structure is given as a SMILES string. “And” between values parts separate entries of the source, which are not always exact repeats. Equal values may be shown once. The list shows a part of the results. Further columns of the screen follow, without active or inactive calls. Most of these compounds were active or inconclusive in the main read-out, so they are no random draw. Potencies come from curve fits of mixed quality, noted in brackets.

One may read the AC50 as the midpoint of the concentration-response curve, whichever way the signal moves.

Take `Cc1ccc(N2C(=O)CSC23C(=O)N(CC(=O)NCCc2ccccc2)c2ccccc23)cc1C` (stereo not given): the concentration at half-maximal activity (AC50) under setting [1] was 20 µM [falling, single point].
Take `COc1ccc(CCNC(=O)c2cnc3ccc(C)cn3c2=O)cc1`: under setting [1], the AC50 is 5.01 µM [rising, partial curve].
On to `c1ccc(-c2csc(N3CCN(c4ccccn4)CC3)n2)cc1`, for which the concentration at half-maximal activity (AC50) runs as follows: under setting [2], 39.8 µM [falling, single point]; under setting [3], 15.8 µM [falling, partial curve].
As to `CC(C)CS(=O)(=O)c1oc(-c2ccc(F)cc2)nc1S(=O)(=O)c1ccccc1`, the AC50 under setting [1] is 5.01 µM [falling, full curve].
As to `COc1cccc(Cn2nnc(C(=O)Nc3cc(C)ccc3C)c2N)c1`, the AC50 under setting [1] is 12.6 µM [falling, single point].
Still for that read-out and setting: next, `COc1ccc(OC)c(C(c2nnnn2C(C)(C)C)N2CCc3ccccc3C2)c1` (stereo not given): 25.1 µM [falling, partial curve].
On the same count and under the same terms, next, `CCOc1ccccc1CNC(=O)Cn1c(-c2ccccc2)cc(C(C)=O)c1C`: 39.8 µM [falling, single point]; `O=C(Cn1c(=O)n(Cc2ccccc2)c(=O)c2sc3ccccc3c21)NCc1ccccc1Cl`: 6.31 µM [rising, single point]; `O=C(NC1CC(=O)N(c2cccc(F)c2)C1)c1ccc(S(=O)(=O)N2CCCC2)cc1` (stereo not given): 3.98 µM [falling, single point].
The same measure, in the same setting: under `Cc1ccc2nc(NC(=O)CSc3nccn3Cc3ccc(Cl)cc3)sc2c1` stands 39.8 µM [falling, single point]; under `Fc1ccc(Nc2nc(N3CCOCC3)c3ccccc3n2)cc1`, 20 µM [falling, partial curve].
For `COc1ccc(C(=O)c2oc3ccccc3c2NC(=O)COc2ccccc2)cc1`, under setting [1], the AC50 was 39.8 µM [falling, single point].
Same read-out and setting: next, `COc1ccc(CCNC(=O)c2sc3nc4n(c(=O)c3c2C)CCCC4)cc1OC`: 6.31 µM [falling, partial curve]; `Cc1ccc(C)c(-n2nnnc2Sc2nnnn2-c2ccccc2)c1`: 15.8 µM [falling, partial curve].
For the molecule `CC1=CC(C)=Nc2ccc(C)cc2N1`, the AC50 under setting [1] was 12.6 µM [falling, partial curve].
Same read-out and setting: under `Clc1cccc(-c2nnc(-c3ccccc3)o2)c1` stands 10 µM [falling, partial curve]; under `CCOC(=O)c1cc(-c2ccccc2)n(-c2cccc(C(=O)Nc3cccc(F)c3)c2)c1C`, 39.8 µM [falling, single point]; under `C/C(N)=C(/C#N)C(=O)CSc1nnc(SCc2ccc(Cl)cc2)s1`, 12.6 µM [falling, partial curve].
Regarding `CCn1c(=O)c2cc(C(=O)Nc3cc(F)ccc3F)sc2c2ccccc21`, the AC50 under setting [1] is 0.02 µM [falling, full curve].
On the same count and under the same terms, next, `Cn1c(=O)c(=O)n(C)c2cc(S(=O)(=O)Nc3ccc4c(c3)OCCO4)ccc21`: 5.01 µM [falling, full curve, poor fit].
On the same count and under the same terms, next, `Cc1ccc(CN2CCC(CNc3ncnc4onc(-c5ccc(F)cc5)c34)CC2)cc1`: 25.1 µM [falling, single point]; `COc1ccc(-c2n[nH]c(=S)n2C2CCCCC2)cc1`: 10 µM [falling, partial curve].
As for `CCCCn1c(=NC(=O)c2ccco2)c(C(=O)OCC)cc2c(=O)n3ccccc3nc21`, the AC50 under setting [1] is 12.6 µM [rising, partial curve] [measured here: IkB-luc green channel].
The same measure, in the same setting: under `Cc1c(C(=O)c2no[n+]([O-])c2C(=O)c2cnn(C)c2C)cnn1C` stands 7.94 µM [falling, partial curve]; under `COc1cccc(-c2nc(SCc3cc(=O)c4ccc(C)c(C)c4[nH]3)n[nH]2)c1`, 31.6 µM [falling, partial curve, poor fit].
The same measure, in the same setting: under `Clc1ccc(-c2nnc(-c3ccccc3)o2)c(Cl)c1` stands 15.8 µM [falling, partial curve]; under `COc1ccc(NC(=O)c2csc3c2CCCCC3)cc1`, 3.16 µM [rising, partial curve].
On the same count and under the same terms, next, `Cc1ccc(Cc2c(C)nc3nc(SCC(=O)NC(C)c4ccccc4)nn3c2C)cc1` (stereo not given): 6.31 µM [falling, partial curve]; `COc1ccc(S(=O)(=O)c2nnn(-c3cc(Cl)c(OC)cc3OC)c2C)cc1`: 25.1 µM [falling, single point]; `CCOCCCn1c(SCC(=O)Nc2ccc(C(C)C)cc2)nc2c(sc3ccccc32)c1=O`: 25.1 µM [rising, partial curve].
Take `Cn1c(=O)c2c(-c3ccccc3)n3c4ccccc4nc(-c4ccccc4)c3c2n(C)c1=O`: the AC50 under setting [1] is 15.8 µM [falling, partial curve].
On the same count and under the same terms, next, `COc1ccc(C(=O)NCC(c2cccnc2)N2CCc3ccccc3C2)cc1OC` (stereo not given): 31.6 µM [falling, single point]; `Cc1ccc(Cl)cc1NC(=O)C(C)n1nnc2sc3c(c2c1=O)CCCC3` (stereo not given): 12.6 µM [falling, partial curve]; `Cc1cccc(N2CCN(S(=O)(=O)c3ccc4c(c3)CCCN4C(=O)C3CCC3)CC2C)c1` (stereo not given): 20 µM [falling, partial curve].
Consider `COc1ccc(Cn2c(=O)[nH]c3cc(C(=O)N4CCN(c5cccc(Cl)c5)CC4)ccc3c2=O)cc1`, for which the half-maximal activity concentration (AC50) under setting [1] is 0.316 µM [falling, full curve].
In the case of `Cn1c(=O)n(-c2ccc(Br)cc2F)c(=O)c2sc3ccccc3c21`, the AC50 under setting [1] was 25.1 µM [rising, partial curve].
Turning to `CCOC(=O)c1ccc(CN(Cc2ccc(F)cc2)S(=O)(=O)c2cc(C(=O)Nc3cccc(C(F)(F)F)c3)ccc2F)cc1`, the AC50 under setting [1] was 7.94 µM [falling, full curve].
Still for that read-out and setting: next, `COc1cc2c(=O)c(S(=O)(=O)c3ccc(F)cc3)cn(Cc3ccc(Cl)cc3)c2cc1OC`: 20 µM [falling, partial curve]; `CCCN1C(C(=O)c2ccccc2)=C(OC(=O)COc2ccccc2)c2ccccc2S1(=O)=O`: 10 µM [falling, partial curve].
With `CC(=O)c1ccc(NC(=O)c2noc3c2CCc2ccccc2-3)cc1`, the AC50 under setting [1] is 0.631 µM [rising, full curve].
The same measure, in the same setting: next, `CCOC(=O)c1[nH]c2ccc(F)cc2c1NC(=O)c1cc(OC)c(OC)c(OC)c1`: 15.8 µM [falling, partial curve]; `O=C(Cn1cnc2c(oc3ccccc32)c1=O)Nc1ccccc1C(F)(F)F`: 0.398 µM [falling, full curve].
For `Cc1ccc(-c2nnc(Nc3cccc(Cl)c3)c3ccccc23)cc1S(=O)(=O)N1CCOCC1`, the AC50 under setting [1] was 0.1 µM [falling, full curve].
Still for that read-out and setting: under `Cc1cc(C)c(NC(=O)CSc2nc3ccccc3nc2N2CCCCC2)c(C)c1` stands 3.98 µM [falling, full curve, poor fit].
Same read-out and setting: under `CCC(C(=O)Nc1cccc(Cl)c1C)n1nc(-c2ccc(C)cc2)ccc1=O` (stereo not given) stands 15.8 µM [falling, partial curve]; under `CCCc1nc2sc3c(N4CCC(C)CC4)ncnc3c2c2c1CCCC2`, 1.26 µM [rising, full curve, poor fit]; under `O=C(NCc1cccc(Cl)c1)c1cc2ccc3cccnc3c2[nH]1`, 0.631 µM [rising, full curve].
The same measure, in the same setting: under `CC1CCN(C(=O)Cn2cc(SCC(=O)NCc3ccccc3Cl)c3ccccc32)CC1` stands 25.1 µM [falling, single point]; under `O=C(C(c1ccccc1)c1ccccc1)N1CCN(CC(O)COc2ccccc2)CC1` (stereo not given), 15.8 µM [falling, partial curve].
As to `CNCCCC12CCC(c3ccccc31)c1ccccc12`, under setting [1], the AC50 was 25.1 µM [falling, partial curve].
The same measure, in the same setting: under `CCCN(CCC)CCCNC(=O)C1CCC(CNS(=O)(=O)c2cccc3nsnc23)CC1` (stereo not given) stands 39.8 µM [falling, single point]; under `Cc1ccc(CN(Cc2ccco2)C(=O)COc2c(C)cc(C)cc2C)cc1`, 25.1 µM [falling, single point]; under `Oc1ccc(-c2nc3ccccn3c2Nc2ccc3c(c2)OCCO3)cc1`, 12.6 µM [falling, partial curve].
`COCCNC(=O)CSc1c2c(nc3cc(Cl)ccc13)CCCC2`: the half-maximal activity concentration (AC50) runs as follows: under setting [2], 3.98 µM [rising, partial curve]; under setting [3], 25.1 µM [falling, single point].
As for `CCCc1nn2c(=O)cc(COC(=O)c3cccc(NC(=O)CCc4ccccc4)c3)nc2s1`, the AC50 under setting [1] was 10 µM [falling, partial curve].
Still for that read-out and setting: next, `Cc1cc(C)c2c(c1)-c1c(ssc1=S)C(C)(C)N2C(=O)CSc1nncn1C`: 15.8 µM [falling, partial curve]; `CCOc1ccc(CNC(=O)C2CCN(S(=O)(=O)N3CCCCC3)CC2)cc1`: 0.316 µM [falling, partial curve]; `O=C(OCN1C(=O)c2ccccc2C1=O)c1cccs1`: 1.58 µM [rising, partial curve].
The same measure, in the same setting: next, `COc1cccc(C(=O)Nc2cc(-c3cn4cccnc4n3)ccc2C)c1OC`: 12.6 µM [rising, partial curve].
Regarding `O=C1Cc2c([nH]c3ccc(Br)cc23)-c2ccccc2N1`, the AC50 runs as follows: under setting [2], 6.31 µM [falling, full curve]; under setting [3], 10 µM [falling, full curve, poor fit] and 2 µM [falling, full curve].
Take `Cc1ccccc1Cn1nc(C)c(NC(=O)c2noc3c2CC(C(C)(C)C)CC3)c1C` (stereo not given): the half-maximal activity concentration (AC50) under setting [1] was 12.6 µM [falling, partial curve].
Consider `Cc1ccc(OCC(=O)Nc2ccccc2C(=O)OCc2cc(=O)n3nc(C4CC4)sc3n2)cc1`, for which, under setting [1], the AC50 is 12.6 µM [falling, partial curve].

For the origin of these results see PubChem BioAssay AID445 (National Center for Advancing Translational Sciences (NCATS), 2006).
